Source: patent publication US7592188B2, “Live cell biosensors” (The Scripps Research Institute, priority 2004, dated 2009)

Experiment: Thioanisole trapping experiment during photo-bleaching
Settings: butanol solution

CCN1/C(=C\C=C\C=C2C(=O)N(C)C(=S)N(C)C2=O)Sc2ccccc21 [dye 1b, 1,3-Dimethyl-5-[(2E,4E)-4-(3-ethyl-1,3-benzothiazol-2(3H)-ylidene)-but-2-enylidene]-2-thioxodihydropyrimidine-4,6(1H,5H)-dione]
phenylmethyl sulfone generated: 10% | phenylmethylsulfoxide generated: 90%
